Binding data for three molecules are collected here from paper PMC3234234, “A Host Small GTP-binding Protein ARL8 Plays Crucial Roles in Tobamovirus RNA Replication” (PLoS Pathogens, 2011).

B1: NtARL8c (Nicotiana tabacum ARL8c), endogenous (protein, UniProt H1AD89 1-184)
chain: MGLWEALLNWLRSLFFQQEMELSLIGLQNAGKTSLVNVIATGGYSEDMIPTVGFNMRKVTKGNVTIKLWDLGGQPRFRSMWERYCRAVSAIVYVVDAADHDNVSISRSEIHDLLSKPSLNGIPLLVLGNKIDKPEALSKQALTDQMDLKSVTDREVCCYMISCKNSTNIDSVLDWLVKHSKSKS
B2: NtARL8a (Nicotiana tabacum ARL8a), endogenous (protein, UniProt H1AD87 1-184)
chain: MGLWEAFLNWLRSLFFKQEMELSLIGLQNAGKTSLVNVIATGGYSEDMIPTVGFNMRKVTKGNVTIKLWDLGGQPRFRSMWERYCRAVSAIVYVVDAADHDNLSISKSELHDLLNKPSLSGIPLLVLGNKIDKPGALSKQALTDEMGLKSITDREVCCYMISCKNSTNIDSVIDWLVKHSKSKS
B3: NtARL8b (Nicotiana tabacum ARL8b), endogenous (protein, UniProt H1AD88 1-184)
chain: MGIWEAFLNWLRSLFFKQEMELSLIGLQNAGKTSLVNVIATGGYSEDMIPTVGFNMRKVTKGNVTIKLWDLGGQPRFRSMWERYCRAVSAIVYVVDAADPDNLSISSSELHDLLSKPSLSGIPLLVLGNKIDKPGAQSKQALTDQMGLKSITDREVCCYMISCKNSTNIDSVIDWLVKHSKSKS

These are yes or no findings as the source states them, for the method shown. Binding seen in cells or lysates may run through a third protein. A yes stands for co-enrichment or nearness to the bait. Other partners may have been found.

The experiment deals with FLAG-StrepII-tagged ToMV 180K replication protein (180K-FS) (Tomato mosaic virus). Kind of experiment: affinity purification with mass spectrometry; 180K-FS purified with anti-FLAG antibody from LPC-solubilized membranes of ToMV-180FS-GFP-infected, evacuolated BY-2 protoplasts; SDS-PAGE, silver stain, band cut out, trypsin, LC-MS/MS, MASCOT.
With B1, the binding entry is on record as “binds”.

Take B2: the binding entry is on record as “binds”.

As to B3, the binding result is “binds”.
